Data taken from article PMC8974069.
These are yes or no findings as the source states them, for the method shown. Some results given as binding are weak or reduced against the parent protein; the word gives no strength. Tags and fused reporters may be left off the sequences shown.

Protein sequences, listed by entry. Tags and fused reporters are not part of them.
UniProt P17070: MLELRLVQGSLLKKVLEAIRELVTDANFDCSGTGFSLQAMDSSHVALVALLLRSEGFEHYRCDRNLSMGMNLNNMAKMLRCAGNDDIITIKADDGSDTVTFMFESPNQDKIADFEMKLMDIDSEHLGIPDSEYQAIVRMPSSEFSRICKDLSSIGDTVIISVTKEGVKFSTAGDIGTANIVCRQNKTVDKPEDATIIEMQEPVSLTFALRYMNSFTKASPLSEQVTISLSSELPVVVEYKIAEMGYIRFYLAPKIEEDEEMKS

Target: T1, OsGEN1-BD (rice) (UniProt Q64MA3)
T1 sequence: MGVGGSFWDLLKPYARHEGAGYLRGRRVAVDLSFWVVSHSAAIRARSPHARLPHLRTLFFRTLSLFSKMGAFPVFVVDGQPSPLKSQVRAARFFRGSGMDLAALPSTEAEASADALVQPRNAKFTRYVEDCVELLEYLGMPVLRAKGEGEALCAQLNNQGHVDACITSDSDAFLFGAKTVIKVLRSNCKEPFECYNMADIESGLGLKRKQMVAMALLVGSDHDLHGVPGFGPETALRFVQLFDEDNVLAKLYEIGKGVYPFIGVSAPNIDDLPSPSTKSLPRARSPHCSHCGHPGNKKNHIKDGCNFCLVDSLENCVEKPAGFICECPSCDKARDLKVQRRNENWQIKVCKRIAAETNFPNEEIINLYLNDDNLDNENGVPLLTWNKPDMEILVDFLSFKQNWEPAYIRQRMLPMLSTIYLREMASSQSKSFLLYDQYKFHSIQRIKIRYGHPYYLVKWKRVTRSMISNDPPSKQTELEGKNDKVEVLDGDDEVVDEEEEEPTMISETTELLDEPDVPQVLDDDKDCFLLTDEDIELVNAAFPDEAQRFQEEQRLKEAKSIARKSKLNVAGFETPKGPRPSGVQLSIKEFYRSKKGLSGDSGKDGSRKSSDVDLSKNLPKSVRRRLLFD
Test: two-hybrid; GAL4-based, yeast strain AH109; OsPCNA-AD with truncated or mutated CHR721-BD or OsGEN1-BD; growth on SD-Ade/-Leu/-Trp/-His (Fig. 3, Fig. S2; medium of Fig. 4 not told)

- binding: binds
Substance: OsPCNA-AD (from UniProt P17070 1-263)
